This is a selection; strong and weak results do not stand in their true shares. At the low end of the ranking the order means little.

This experiment concerns the target T1, FEV (UniProt Q99581).
T1 sequence: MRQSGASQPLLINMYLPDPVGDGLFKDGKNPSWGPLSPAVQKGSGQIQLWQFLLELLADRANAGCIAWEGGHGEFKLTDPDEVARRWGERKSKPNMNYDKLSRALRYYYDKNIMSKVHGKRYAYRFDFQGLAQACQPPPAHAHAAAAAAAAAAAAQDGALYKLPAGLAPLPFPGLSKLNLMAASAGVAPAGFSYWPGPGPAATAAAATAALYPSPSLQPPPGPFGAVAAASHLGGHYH
Put plainly: DAPPL (digital affinity profiling via proximity ligation, sequencing). The note with it: 10 mM Tris-HCl pH 7.5, 50 mM NaCl, 1 mM DTT, 4% glycerol, room temperature, 30 min; GST-TFs on glutathione beads, 16-mer random dsDNA library, 0.1% …; high values mean tight binding; double strand, one strand shown; scale: fold enrichment (6-mer frequency, TF over GST control).
The sequence AAAACG gave a binding signal of 1.18.
The result for TTTTTC reads 1.19; that for CCCCGA, 1.18; that for TTATCG, 1.21.
The result for TAAGGA reads 0.838; that for TGCGAA, 1.14; that for CCCTTG, 1.16.
The sequence TCCACT came in with a binding signal of 1.54.
For TACCCC the value was 1.07; for TAAAGG, 1.02.
On to AAGCTT, for which the binding signal amounted to 1.16.
For GATAAT the value was 0.99; for CTGAAC, 1.35.
The result for ACAGCT reads 1.07.
In the case of CTAGCA, the binding signal turned out to be 1.27.
The result for CGAGCA reads 1.16.
Sequence AAGCCT registered a binding signal of 1.2.
The result for ATCTAT reads 1.08.
Sequence TCCCAT returned a binding signal of 1.32.
The result for TTCGGC reads 1.
The result for CCCCCT reads 1.18; that for GTTGAT, 0.995.
The result for ATGAAC reads 1.26; that for TTTGCC, 1.26; that for TATATT, 1.39.
Sequence TAGAAG had a binding signal of 0.999.
The result for TTCCGC reads 3.1; that for TTACCT, 1.26; that for CGGATC, 0.991.
The result for ATGCGA reads 1.17.
For TCAATT the value was 1.16.
The sequence CAATAC yielded a binding signal of 1.27.
The result for TCTAAC reads 1.23; that for CTATTT, 1.68.
For CCTGCT the value was 1.67; for TTGCGA, 1.08.
For AGGCTT the value was 0.995; for AGCTAT, 1.16; for AGTATA, 0.955.
